# Assay results from publication PMC4364741.
# Protein sequences, listed by entry. Tags and fused reporters are not part of them. Lines headed by an entry give the natural chain unless they say otherwise; changes in a name come on top.
# UniProt Q9JXE1: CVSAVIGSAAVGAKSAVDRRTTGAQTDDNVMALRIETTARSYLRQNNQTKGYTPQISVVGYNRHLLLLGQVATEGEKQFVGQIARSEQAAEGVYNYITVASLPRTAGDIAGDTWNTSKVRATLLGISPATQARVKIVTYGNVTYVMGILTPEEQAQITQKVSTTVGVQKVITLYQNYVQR
# Results are given in words; binding and its absence hold for the method and conditions named. For part of these data: Binding calls can cover weak binding; strength is not graded here.
# B1: Human C reactive Protein (protein, UniProt P02741 19-224)
# chain: QTDMSRKAFVFPKESDTSYVSLKAPLTKPLKAFTVCLHFYTELSSTRGYSIFSYATKRQDNEILIFWSKDIGYSFTVGGSEILFEVPEVTVAPVHICTSWESASGIVEFWVDGKPRVRKSLKKGYTVGAEASIILGQEQDSFGGNFEGSQSLVGDIGNVNMWDFVLSPDEINTIYLGGPFSPNVLNWRALKYEVQGEVFTKPQLWP
# Tests used:
# [1] = target: Histone H1 from calf thymus (calf); assay: ELISA; microtiter plates coated with 1 μg/well of Histone H1, incubated with different doses of CRP; A450; both purified
# [2] = target: Genome-derived Neisserial antigen GNA0278 (Neisseria meningitidis); assay: ELISA; plastic wells coated with the recombinant Nm proteins (1 μg/well), incubated with human or murine PTX3, human CRP or SAP (22 pmoles) for 1 h at 37°C, then antibodies; A450; both purified
# [3] = target: Genome-derived Neisserial antigen GNA2091 (Neisseria meningitidis) (UniProt Q9JXE1); assay: as above
binder,measurement,setting,value
B1,binding,[1],binds
same,binding,[2],no binding (tested: 22 pmoles)
same,binding,[3],no binding (tested: 22 pmoles)
